Reference: PubChem BioAssay AID1259254 (NCATS, 2017)
This is one part, drawn at random, of about 59,000 deposited reagents. About 1,550 of them (2.6%) count as active. 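G2 share is only a proxy for re-replication; each gene was hit by three separate siRNAs, and active genes were retested.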 The raw values are shown without normalisation. Reagents against one gene are numbered here. Not given: the amount of reagent.

Assay: 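Genome-wide screen for genes that prevent DNA re-replication in cancer cells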 (primary screen)
System: human HCT116 colorectal cancer cells
Reagents: single siRNA against human genes
Time to read-out: 3 days
Measurement: 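Nuclei stained with Hoechst and imaged; cell-cycle phase assigned by DNA content; G2 share scaled per plate, non-targeting siRNA 0%, GMNN siRNA 100%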
Direction: G2 robust z-score and G2 cells, % of GMNN control: higher = more G2 cells, more excess DNA replication; raw share of cells in G2: higher = larger share of cells with G2 DNA content
Hit rule: 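Active siRNAs have a G2 robust z of 5 or more median absolute deviations over the median, which in these data means about 38% or higher of GMNN control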

The opening 5 entries, to show the layout:
Target gene	reagent no.	G2 robust z-score	G2 cells, % of GMNN control	raw share of cells in G2 (%)	activity call
LGI2 (GeneID 55203)	1	0.372	5.59	6.44	inactive
LGI2 (GeneID 55203)	2	-0.988	-3.98	2.67	inactive
LGI2 (GeneID 55203)	3	-0.89	-3.29	4.99	inactive
KCNRG (GeneID 283518)	1	-1.56	-7.99	0.839	inactive
KCNRG (GeneID 283518)	2	-0.135	2.02	4.38	inactive

Main list, from the start:
Target gene	reagent no.	G2 robust z-score	G2 cells, % of GMNN control	raw share of cells in G2 (%)	activity call
LGI2 (GeneID 55203)	1	0.372	5.59	6.44	inactive
LGI2 (GeneID 55203)	2	-0.988	-3.98	2.67	inactive
LGI2 (GeneID 55203)	3	-0.89	-3.29	4.99	inactive
KCNRG (GeneID 283518)	1	-1.56	-7.99	0.839	inactive
KCNRG (GeneID 283518)	2	-0.135	2.02	4.38	inactive
KCNRG (GeneID 283518)	3	-0.0852	2.37	3.96	inactive
SERPINA12 (GeneID 145264)	1	0.821	8.74	8.38	inactive
SERPINA12 (GeneID 145264)	2	0.695	7.86	7.58	inactive
SERPINA12 (GeneID 145264)	3	-0.794	-2.62	4.71	inactive
IFIT2 (GeneID 3433)	1	0.146	3.99	6.5	inactive
IFIT2 (GeneID 3433)	2	2.47	20.4	13.4	inactive
IFIT2 (GeneID 3433)	3	-0.341	0.571	4.41	inactive
AARSD1 (GeneID 80755)	1	2.33	19.4	11.2	inactive
AARSD1 (GeneID 80755)	2	-0.748	-2.29	3.94	inactive
AARSD1 (GeneID 80755)	3	-0.00881	2.91	6.64	inactive
CCDC178 (GeneID 374864)	1	1.6	14.2	8.87	inactive
CCDC178 (GeneID 374864)	2	-0.564	-1	2.82	inactive
CCDC178 (GeneID 374864)	3	-0.0825	2.39	5.15	inactive
MVD (GeneID 4597)	1	-1.03	-4.28	1.78	inactive
MVD (GeneID 4597)	2	0.632	7.41	8.41	inactive
MVD (GeneID 4597)	3	0.173	4.19	6.98	inactive
ZNF544 (GeneID 27300)	1	-0.158	1.86	3.45	inactive
ZNF544 (GeneID 27300)	2	-1.06	-4.51	3.87	inactive
ZNF544 (GeneID 27300)	3	1.54	13.8	7.97	inactive
ANO7 (GeneID 50636)	1	0.107	3.72	4.43	inactive
ANO7 (GeneID 50636)	2	-0.49	-0.484	3.67	inactive
ANO7 (GeneID 50636)	3	1.08	10.6	8.55	inactive
IRX6 (GeneID 79190)	1	1.37	12.6	8.8	inactive
IRX6 (GeneID 79190)	2	-0.611	-1.33	3.88	inactive
IRX6 (GeneID 79190)	3	0.154	4.05	7.32	inactive
SALL1 (GeneID 6299)	1	0.302	5.09	6.62	inactive
SALL1 (GeneID 6299)	2	0.36	5.5	5.98	inactive
SALL1 (GeneID 6299)	3	3.11	24.8	13.5	inactive
SIGLEC12 (GeneID 89858)	1	-0.359	0.441	5.88	inactive
SIGLEC12 (GeneID 89858)	2	0.999	10	9.26	inactive
SIGLEC12 (GeneID 89858)	3	1.47	13.3	9.52	inactive
MAML1 (GeneID 9794)	1	0.606	7.23	8.6	inactive
MAML1 (GeneID 9794)	2	-1.02	-4.19	2.19	inactive
MAML1 (GeneID 9794)	3	-0.00348	2.94	4.48	inactive
PRPS1L1 (GeneID 221823)	1	-0.703	-1.98	4.95	inactive
PRPS1L1 (GeneID 221823)	2	-0.846	-2.99	4.4	inactive
PRPS1L1 (GeneID 221823)	3	-0.619	-1.39	3.54	inactive
LDLRAD1 (GeneID 388633)	1	0.826	8.78	6.78	inactive
LDLRAD1 (GeneID 388633)	2	1.14	11	8.19	inactive
LDLRAD1 (GeneID 388633)	3	-0.851	-3.02	3.34	inactive
CATSPERE (GeneID 257044)	1	1.78	15.5	9.2	inactive
CATSPERE (GeneID 257044)	2	-0.116	2.15	3.87	inactive
CATSPERE (GeneID 257044)	3	-0.503	-0.57	3.01	inactive
